The other results are listed elsewhere or left out.

The test concerns the target T1, OsSMF1 (Oryza sativa, UniProt Q6ZLB0 1-436).
T1 sequence: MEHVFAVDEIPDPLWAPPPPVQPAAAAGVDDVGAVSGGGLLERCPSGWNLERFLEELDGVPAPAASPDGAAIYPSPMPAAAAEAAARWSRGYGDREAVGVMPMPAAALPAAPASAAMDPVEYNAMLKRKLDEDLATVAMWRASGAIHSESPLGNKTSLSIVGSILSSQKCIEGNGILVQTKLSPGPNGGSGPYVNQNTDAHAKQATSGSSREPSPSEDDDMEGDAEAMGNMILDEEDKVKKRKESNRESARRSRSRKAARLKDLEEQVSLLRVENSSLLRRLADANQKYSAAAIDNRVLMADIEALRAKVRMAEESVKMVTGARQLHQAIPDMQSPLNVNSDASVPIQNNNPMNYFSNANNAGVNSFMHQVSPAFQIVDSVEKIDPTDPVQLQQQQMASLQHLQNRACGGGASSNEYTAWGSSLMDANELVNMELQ
The experiment in a line: protein-binding microarray (RPBM); PBS, 2% BSA, 51.3 ng/ul salmon testes DNA, 50 uM zinc acetate, 200 nM TF, 25 C, 1 h; high values mean tight binding. The settings on record: protein: recombinant; tags: N-terminal polyhistidine and DsRed monomer fusion (pET32a); chain copies: 2; label: CyDye5-dUTP incorporated in the synthesized complementary strand; 3' TTTTT single-stranded linker to array surface; dsDNA, one strand shown. The gist of the method: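 The binding signal is fluorescence intensity per array feature (arbitrary units). Readings came from an Axon 4000B scanner after a washed, 2% BSA-blocked, double-stranded custom Agilent array had been incubated for 1 h at 25 °C with 200 nM protein and 50 µM zinc acetate. The protein was a Ni–NTA-purified transcription factor fused N-terminally to polyhistidine and DsRed, expressed in E. coli BL21-CodonPlus.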
For “CTCCCCACTCACTGCCAGGTGGGCCCACCTTGTCGGATTACGGAGTCACCTAGTGCAG”, the binding signal was 3530 fluorescence intensity (a.u.).
Under “TCAAGAATTTGTGTTGGAAACTGATGCCTATGACAGGGGTCGGAGTCACCTAGTGCAG” stands 3440 fluorescence intensity (a.u.); under “GGAGATGATGATTTACCTGTGATCTGTTTGGTCCTTGAGCCGGAGTCACCTAGTGCAG”, 3360 fluorescence intensity (a.u.).
The result for “AAGGGAAATAAGCTGATCTGGAAAGAAAAGAGAACATCAGCGGAGTCACCTAGTGCAG” reads 4300 fluorescence intensity (a.u.); that for “AGGAACGCGCGGATCGATGACGTGGCGCTGATCCTGCCTACGGAGTCACCTAGTGCAG”, 11600 fluorescence intensity (a.u.).
Under “TAAAATAGTTTTAAAACTTTAAGTTGAAAGTAAATACTTTCGGAGTCACCTAGTGCAG” stands 27900 fluorescence intensity (a.u.).
Regarding “GAACTGCTCGTCACGTAATCAAATCGTGTCCCATCACTTGCGGAGTCACCTAGTGCAG”, the binding signal was 5350 fluorescence intensity (a.u.).
The result for “CAACTACCGACCTCACTTCCACGCCCACCGTCGTCGACTCCGGAGTCACCTAGTGCAG” reads 4630 fluorescence intensity (a.u.).
Under “TTTGTGTCACTTTTAAACATGTTCACGTCATTATTTTAGTCGGAGTCACCTAGTGCAG” stands 5860 fluorescence intensity (a.u.).
Under “GCCTAGGCCCAAATTCAGGGCCCACCAGGCCCACGTGTCTCGGAGTCACCTAGTGCAG” stands 4670 fluorescence intensity (a.u.); under “AGGGAAAGATTCTAACAAATAAAGAAAAGAACAATGCAGCCGGAGTCACCTAGTGCAG”, 3260 fluorescence intensity (a.u.).
With “TTAGAAAACCTTCCGGGACTAATGACATGGCAATCTCACCCGGAGTCACCTAGTGCAG”, the binding signal was 5090 fluorescence intensity (a.u.).
The result for “GGCTGCGCGGGTTTCAATAGCTGACAGTGTGTACGCTTCTCGGAGTCACCTAGTGCAG” reads 3920 fluorescence intensity (a.u.); that for “ACCGCATCCTAGGGGTAAACACGTCATTCTATCCCCACCCCGGAGTCACCTAGTGCAG”, 18300 fluorescence intensity (a.u.).
As for “GGTCGGCCAATGGGGACTCGCCACGTGTGCGCCTCGCCACCGGAGTCACCTAGTGCAG”, the binding signal is 24200 fluorescence intensity (a.u.).
The result for “ACTACTTGAGAGGGACGTGAGTGCGTGACGGCGCCAATGCCGGAGTCACCTAGTGCAG” reads 4110 fluorescence intensity (a.u.); that for “CATTCTTTGTCCATTTATTGACGTGCATGACAACACACTCCGGAGTCACCTAGTGCAG”, 3470 fluorescence intensity (a.u.).
“AGAGTTTGGTCAAAGAAAAGGTAAGTTCCTCCATCCACGTCGGAGTCACCTAGTGCAG”: the binding signal was 4060 fluorescence intensity (a.u.).
The result for “CCGTACTCATAAAGGAAGTCGTTTTGGACAGCATCACGGTCGGAGTCACCTAGTGCAG” reads 4170 fluorescence intensity (a.u.); that for “TGCCCGTGCCAGCCGTCCATTGGCGCGCGGGCGACGTGGCCGGAGTCACCTAGTGCAG”, 3950 fluorescence intensity (a.u.); that for “GGTGACACACTTCTGATTGTGCACATATGTGGCATTCTGTCGGAGTCACCTAGTGCAG”, 6000 fluorescence intensity (a.u.).
Consider “CTCATCAGCAACTTGTGACATAATCTGTGCATTGCGTCCACGGAGTCACCTAGTGCAG”, for which the binding signal was 3970 fluorescence intensity (a.u.).
As to “CAAACTGTACATGTTGGTGGCGTCGCGTCATGTCACCAAACGGAGTCACCTAGTGCAG”, the binding signal is 4020 fluorescence intensity (a.u.).
Under “ATCGATGACGGATGACTCACACTGCTGACAAAAGAGCAGACGGAGTCACCTAGTGCAG” stands 7740 fluorescence intensity (a.u.); under “CCGTGAGACGTGGACACGTGTCACACGTCTCTCTCTCTCTCGGAGTCACCTAGTGCAG”, 22000 fluorescence intensity (a.u.); under “GCGCCAGTTGACATGGCGCTGAGGTGTCTAAATTCAGCGCCGGAGTCACCTAGTGCAG”, 10700 fluorescence intensity (a.u.).
For “CGCCACTCGCCTCGCCACGACGATGTCCCGTGGCAGGTGCCGGAGTCACCTAGTGCAG”, the binding signal is 4710 fluorescence intensity (a.u.).
The result for “GCCTACTTGGTAAGGTAATAAAACCATCACACTAGTCGTACGGAGTCACCTAGTGCAG” reads 5990 fluorescence intensity (a.u.); that for “GGAGAGAGAGGAGGAAGAAGAGGCGAGGATGACAAGTGGGCGGAGTCACCTAGTGCAG”, 3370 fluorescence intensity (a.u.).
Under “ATGCATGGTATGTCACGTTGTGACTTGCCTACACTAAAGCCGGAGTCACCTAGTGCAG” stands 4520 fluorescence intensity (a.u.); under “TTGGAAAGCTTCACTTTAGCATCTTACGCTGGACAGCATCCGGAGTCACCTAGTGCAG”, 3190 fluorescence intensity (a.u.).
The result for “TCAAATGACGTATGCATTTCCCGTTGGGTATAGGGACCACCGGAGTCACCTAGTGCAG” reads 8330 fluorescence intensity (a.u.); that for “AATGCCAAATATACAAACCAATCATATCCACACACACACACGGAGTCACCTAGTGCAG”, 3280 fluorescence intensity (a.u.).
Regarding “ATCGTGATGCAAATGTCGAACTTGGAAGATATCCATGGATCGGAGTCACCTAGTGCAG”, the binding signal was 39000 fluorescence intensity (a.u.).
Regarding “GCCGTCTCCAAGCGAAATACTCCTACTCCGTCGACTTATCCGGAGTCACCTAGTGCAG”, the binding signal was 30100 fluorescence intensity (a.u.).
The result for “AGACACCACCTACCGCGCGCGTCGCGTACTCGCGTGCCCACGGAGTCACCTAGTGCAG” reads 4240 fluorescence intensity (a.u.); that for “GAGGCGGCCGTGGACCGCCAAGGACGCAAGGTGGCGAGGCCGGAGTCACCTAGTGCAG”, 16900 fluorescence intensity (a.u.); that for “CGCCGTCATCCTTCTTTCCACGCCATCGCCGTCGCCGATTCGGAGTCACCTAGTGCAG”, 4340 fluorescence intensity (a.u.).
The result for “GTCTTTCTTCAATTGTTATTATTGTCATAAATCAGGAGAACGGAGTCACCTAGTGCAG” reads 22600 fluorescence intensity (a.u.).
Take “GATGTTTCTGCTGCTGCAGTCATTGGCATCCAGTGCTTTCCGGAGTCACCTAGTGCAG”: the binding signal is 3180 fluorescence intensity (a.u.).
In the case of “GCGGCGCCGGTGATGAGGGCCTAGCGTCAGCTGCGGGGCGCGGAGTCACCTAGTGCAG”, the binding signal was 3470 fluorescence intensity (a.u.).
Under “CATGCGTTGTCGCCGCGCCGCGTCAGGCGAGCCACGGCTCCGGAGTCACCTAGTGCAG” stands 6420 fluorescence intensity (a.u.).

(Values after paper PMC7819943, “Rice protein-binding microarrays: a tool to detect cis-acting elements near promoter regions in rice”.)
